Assay results: publication PMC4038515
These are yes or no findings as the source states them, for the method shown. In cells and extracts the contact can be indirect. Some results given as binding are weak or reduced against the parent protein; the word gives no strength. For part of these data: Tags and fused reporters may be left off the sequences shown.

T1: FLAG-FOXA2, Q9Y261
T1 chain: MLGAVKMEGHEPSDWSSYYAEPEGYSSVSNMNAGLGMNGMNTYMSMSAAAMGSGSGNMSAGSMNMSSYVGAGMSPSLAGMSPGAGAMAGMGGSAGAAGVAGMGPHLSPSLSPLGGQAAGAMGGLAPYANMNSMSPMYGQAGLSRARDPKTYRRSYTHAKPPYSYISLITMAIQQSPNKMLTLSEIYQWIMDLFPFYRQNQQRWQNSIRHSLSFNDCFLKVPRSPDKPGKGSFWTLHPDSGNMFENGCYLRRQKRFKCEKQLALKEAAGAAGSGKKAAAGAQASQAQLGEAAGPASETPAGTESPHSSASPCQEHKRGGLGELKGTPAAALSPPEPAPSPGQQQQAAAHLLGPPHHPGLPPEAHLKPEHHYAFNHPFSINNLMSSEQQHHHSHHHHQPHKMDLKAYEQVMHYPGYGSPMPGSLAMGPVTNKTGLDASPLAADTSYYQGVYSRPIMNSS

T2: endogenous FOXA2 (human (endogenous in HepG2)), Q9Y261
T2 chain: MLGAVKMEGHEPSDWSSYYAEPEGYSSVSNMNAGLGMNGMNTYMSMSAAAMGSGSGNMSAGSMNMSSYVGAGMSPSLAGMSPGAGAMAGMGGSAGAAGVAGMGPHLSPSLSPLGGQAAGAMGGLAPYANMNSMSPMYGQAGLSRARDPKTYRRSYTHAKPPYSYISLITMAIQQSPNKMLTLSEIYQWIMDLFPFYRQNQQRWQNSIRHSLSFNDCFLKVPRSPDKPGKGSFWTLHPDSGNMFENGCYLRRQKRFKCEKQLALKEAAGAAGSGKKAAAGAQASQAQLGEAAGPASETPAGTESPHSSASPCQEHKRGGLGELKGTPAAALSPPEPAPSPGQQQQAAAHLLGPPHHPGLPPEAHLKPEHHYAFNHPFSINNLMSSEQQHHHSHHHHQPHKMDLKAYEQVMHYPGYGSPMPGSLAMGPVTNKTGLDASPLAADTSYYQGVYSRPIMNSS


Columns and labels:
Settings in all cases: remark: other sources report otherwise
FLAG-FOXA2, Q9Y261 [1] = biological target: T1, FLAG-FOXA2, Q9Y261; assay: co-IP; FLAG-FOXA2 and MYC-SIRT1 (wild type or H363Y) co-expressed in HEK293T cells; lysis in SIRT buffer (1% Triton X-100, 5% glycerol, 50 mM Tris-HCl pH7.5, 100 mM NaCl, 5 mM EDTA); FLAG-FOXA2 precipitated with FLAG-M2 beads for 2 hours; SIRT1 detected by anti-MYC or anti-SIRT1; also after starvation from glucose and serum for 16 hours (interaction decreased)
FLAG-FOXA2, Q9Y261 [2] = biological target: T1, FLAG-FOXA2, Q9Y261; assay: proximity ligation; FLAG-FOXA2 and MYC-SIRT1 ectopically expressed in U2OS cells; FLAG- and SIRT1-specific antibodies; data not shown
[3] = biological target: T2, endogenous FOXA2 (human (endogenous in …)); assay: proximity ligation; endogenous FOXA2 and SIRT1 in fixed, permeabilized HepG2 cells; antibodies against SIRT1 and FOXA2, Duolink II PLA probes; also after 2 or 4 hours in glucose-free medium without FCS (interaction reduced)

binding (FLAG-FOXA2, Q9Y261 [1])	binding (FLAG-FOXA2, Q9Y261 [2])	binding [3]	Binder
binds	binds	–	MYC-SIRT1, Q96EB6 1-747 (enzyme) MADEAALALQPGGSPSAAGADREAASSPAGEPLRKRPRRDGPGLERSPGEPGGAAPEREVPAAARGCPGAAAAALWREAEAEAAAAGGEQEAQATAAAGEGDNGPGLQGPSREPPLADNLYDEDDDDEGEEEEEAAAAAIGYRDNLLFGDEIITNGFHSCESDEEDRASHASSSDWTPRPRIGPYTFVQQHLMIGTDPRTILKDLLPETIPPPELDDMTLWQIVINILSEPPKRKKRKDINTIEDAVKLLQECKKIIVLTGAGVSVSCGIPDFRSRDGIYARLAVDFPDLPDPQAMFDIEYFRKDPRPFFKFAKEIYPGQFQPSLCHKFIALSDKEGKLLRNYTQNIDTLEQVAGIQRIIQCHGSFATASCLICKYKVDCEAVRGDIFNQVVPRCPRCPADEPLAIMKPEIVFFGENLPEQFHRAMKYDKDEVDLLIVIGSSLKVRPVALIPSSIPHEVPQILINREPLPHLHFDVELLGDCDVIINELCHRLGGEYAKLCCNPVKLSEITEKPPRTQKELAYLSELPPTPLHVSEDSSSPERTSPPDSSVIVTLLDQAAKSNDDLDVSESKGCMEEKPQEVQTSRNVESIAEQMENPDLKNVGSSTGEKNERTSVAGTVRKCWPNRVAKEQISRRLDGNQYLFLPPNRYIFHGAEVYSDSEDDVLSSSSCGSNSDSGTCQSPSLEEPMEDESEIEEFYNGLEDEPDVPERAGGAGFGTDGDDQEAINEAISVKQEVTDMNYPSNKS
–	–	binds	endogenous SIRT1, Q96EB6 1-747 (enzyme) MADEAALALQPGGSPSAAGADREAASSPAGEPLRKRPRRDGPGLERSPGEPGGAAPEREVPAAARGCPGAAAAALWREAEAEAAAAGGEQEAQATAAAGEGDNGPGLQGPSREPPLADNLYDEDDDDEGEEEEEAAAAAIGYRDNLLFGDEIITNGFHSCESDEEDRASHASSSDWTPRPRIGPYTFVQQHLMIGTDPRTILKDLLPETIPPPELDDMTLWQIVINILSEPPKRKKRKDINTIEDAVKLLQECKKIIVLTGAGVSVSCGIPDFRSRDGIYARLAVDFPDLPDPQAMFDIEYFRKDPRPFFKFAKEIYPGQFQPSLCHKFIALSDKEGKLLRNYTQNIDTLEQVAGIQRIIQCHGSFATASCLICKYKVDCEAVRGDIFNQVVPRCPRCPADEPLAIMKPEIVFFGENLPEQFHRAMKYDKDEVDLLIVIGSSLKVRPVALIPSSIPHEVPQILINREPLPHLHFDVELLGDCDVIINELCHRLGGEYAKLCCNPVKLSEITEKPPRTQKELAYLSELPPTPLHVSEDSSSPERTSPPDSSVIVTLLDQAAKSNDDLDVSESKGCMEEKPQEVQTSRNVESIAEQMENPDLKNVGSSTGEKNERTSVAGTVRKCWPNRVAKEQISRRLDGNQYLFLPPNRYIFHGAEVYSDSEDDVLSSSSCGSNSDSGTCQSPSLEEPMEDESEIEEFYNGLEDEPDVPERAGGAGFGTDGDDQEAINEAISVKQEVTDMNYPSNKS
